Among the data in publication PMC11164484 are binding values, retold here.

Results are given in words; binding and its absence hold for the method and conditions named. Binding seen in cells or lysates may run through a third protein. Some binding calls cover weakened binding; strength is not graded here.

The target in this assay is ferritin heavy chain 1 (FTH1) (human (endogenous in BMSCs)) (UniProt P02794). As to the kind of experiment: co-IP; co-IP in BMSCs with CRYAB antibody or FTH1 antibody for immunoprecipitation, Western blot detection. In general terms: In western blotting, separated proteins are transferred to a membrane and probed.

B1: Crystallin Alpha B (CRYAB) (protein, UniProt P02511 1-175)
chain: MDIAIHHPWIRRPFFPFHSPSRLFDQFFGEHLLESDLFPTSTSLSPFYLRPPSFLRAPSWFDTGLSEMRLEKDRFSVNLDVKHFSPEELKVKVLGDVIEVHGKHEERQDEHGFISREFHRKYRIPADVDPLTITSSLSSDGVLTVNGPRKQVSGPERTIPITREEKPAVTAAPKK
B1: the binding entry was “binds”.
